Test results published in ChEMBL document CHEMBL5038635, “Discovery of Salidroside-Derivated Glycoside Analogues as Novel Angiogenesis Agents to Treat Diabetic Hind Limb Ischemia” (J Med Chem, 2022).
≈ marks a conversion by molar mass, not a printed value.

Key:
[1] = Water solubility of the compound by HPLC analysis; conditions: buffer
[2] = Octanol/Water partition coefficient, log P of the compound by HPLC-UV analysis

## OC[C@H]1O[C@@H](Oc2ccc(Cc3ccc(O)c(O)c3)cc2)[C@H](O)[C@@H](O)[C@@H]1O
[1]
  solubility: 59.1 mg/mL (≈ 156 mM)
[2]
  logP: -0.363
